The target of the assay is T1, 53BP1-V5 (endogenous 53BP1 with a biallelic V5-epitope tag at the C-terminus) (human (endogenous in hTERT-RPE1)), Q12888.
T1 chain: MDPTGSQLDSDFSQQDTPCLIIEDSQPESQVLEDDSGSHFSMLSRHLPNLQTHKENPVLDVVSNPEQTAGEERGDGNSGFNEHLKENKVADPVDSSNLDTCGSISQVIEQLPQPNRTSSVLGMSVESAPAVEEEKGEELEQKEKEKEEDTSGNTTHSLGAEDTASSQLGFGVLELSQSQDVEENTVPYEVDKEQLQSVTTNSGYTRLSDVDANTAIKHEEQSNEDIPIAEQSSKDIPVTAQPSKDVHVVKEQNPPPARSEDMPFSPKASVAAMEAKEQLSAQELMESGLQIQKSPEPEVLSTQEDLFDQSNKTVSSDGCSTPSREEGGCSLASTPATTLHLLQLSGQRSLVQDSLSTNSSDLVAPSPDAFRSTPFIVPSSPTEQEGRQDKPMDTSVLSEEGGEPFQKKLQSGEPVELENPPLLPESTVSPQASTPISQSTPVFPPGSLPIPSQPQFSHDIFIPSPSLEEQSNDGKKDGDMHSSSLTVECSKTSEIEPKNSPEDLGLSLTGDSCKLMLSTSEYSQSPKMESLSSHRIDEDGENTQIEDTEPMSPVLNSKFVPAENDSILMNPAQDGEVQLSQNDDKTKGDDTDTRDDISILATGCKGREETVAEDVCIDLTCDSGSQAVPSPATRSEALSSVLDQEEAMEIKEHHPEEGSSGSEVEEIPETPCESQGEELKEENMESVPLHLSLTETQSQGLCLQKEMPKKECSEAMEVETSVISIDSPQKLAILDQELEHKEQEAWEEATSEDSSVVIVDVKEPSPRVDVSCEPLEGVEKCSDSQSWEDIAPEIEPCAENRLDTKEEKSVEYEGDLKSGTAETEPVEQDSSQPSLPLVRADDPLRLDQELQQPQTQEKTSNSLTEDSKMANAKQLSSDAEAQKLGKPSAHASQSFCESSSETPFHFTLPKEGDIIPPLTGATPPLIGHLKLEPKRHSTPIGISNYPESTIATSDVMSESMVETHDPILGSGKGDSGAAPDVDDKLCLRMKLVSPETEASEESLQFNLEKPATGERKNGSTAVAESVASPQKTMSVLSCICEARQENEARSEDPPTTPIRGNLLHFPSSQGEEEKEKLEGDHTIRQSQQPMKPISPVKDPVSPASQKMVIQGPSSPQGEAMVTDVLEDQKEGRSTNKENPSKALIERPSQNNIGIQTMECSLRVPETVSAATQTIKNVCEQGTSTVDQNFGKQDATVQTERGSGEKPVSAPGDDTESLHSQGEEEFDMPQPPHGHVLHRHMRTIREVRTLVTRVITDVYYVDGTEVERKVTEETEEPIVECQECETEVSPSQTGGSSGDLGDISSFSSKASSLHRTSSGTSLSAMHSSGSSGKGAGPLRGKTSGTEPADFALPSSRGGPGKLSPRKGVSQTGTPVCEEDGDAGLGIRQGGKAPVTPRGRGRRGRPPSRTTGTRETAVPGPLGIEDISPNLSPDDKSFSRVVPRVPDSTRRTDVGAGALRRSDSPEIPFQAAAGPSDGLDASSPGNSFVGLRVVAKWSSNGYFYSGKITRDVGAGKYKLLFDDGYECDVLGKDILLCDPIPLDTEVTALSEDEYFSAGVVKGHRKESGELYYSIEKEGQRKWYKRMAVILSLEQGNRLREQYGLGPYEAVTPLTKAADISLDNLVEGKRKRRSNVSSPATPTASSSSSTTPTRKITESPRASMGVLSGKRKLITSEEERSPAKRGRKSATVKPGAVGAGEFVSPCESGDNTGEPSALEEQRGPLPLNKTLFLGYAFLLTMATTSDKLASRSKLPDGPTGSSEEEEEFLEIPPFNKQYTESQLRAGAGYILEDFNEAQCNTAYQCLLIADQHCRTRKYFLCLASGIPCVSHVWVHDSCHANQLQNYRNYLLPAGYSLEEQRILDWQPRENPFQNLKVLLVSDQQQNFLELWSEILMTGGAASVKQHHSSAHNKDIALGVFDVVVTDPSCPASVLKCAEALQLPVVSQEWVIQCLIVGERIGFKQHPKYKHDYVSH
Description: affinity purification with mass spectrometry; anti-V5 immunoprecipitation (protein A resin, 4 h, 4°C) from lysate of RPE1 53BP1-V5 knock-in cells synchronised in prometaphase (thymidine, then nocodazole 10 h, mitotic shake-off); untagged RPE1 WT mitotic cells as control; LC-MS/MS. Conditions: remark: other sources report otherwise.

These are yes or no findings as the source states them, for the method shown. Binding seen in cells or lysates may run through a third protein. These calls come from enrichment with a bait or labelling near it, and not all partners need be listed. Tags and fused reporters may be left off the sequences shown.

B1: USP28, Q96RU2 1-1077 (enzyme)
chain: MTAELQQDDAAGAADGHGSSCQMLLNQLREITGIQDPSFLHEALKASNGDITQAVSLLTDERVKEPSQDTVATEPSEVEGSAANKEVLAKVIDLTHDNKDDLQAAIALSLLESPKIQADGRDLNRMHEATSAETKRSKRKRCEVWGENPNPNDWRRVDGWPVGLKNVGNTCWFSAVIQSLFQLPEFRRLVLSYSLPQNVLENCRSHTEKRNIMFMQELQYLFALMMGSNRKFVDPSAALDLLKGAFRSSEEQQQDVSEFTHKLLDWLEDAFQLAVNVNSPRNKSENPMVQLFYGTFLTEGVREGKPFCNNETFGQYPLQVNGYRNLDECLEGAMVEGDVELLPSDHSVKYGQERWFTKLPPVLTFELSRFEFNQSLGQPEKIHNKLEFPQIIYMDRYMYRSKELIRNKRECIRKLKEEIKILQQKLERYVKYGSGPARFPLPDMLKYVIEFASTKPASESCPPESDTHMTLPLSSVHCSVSDQTSKESTSTESSSQDVESTFSSPEDSLPKSKPLTSSRSSMEMPSQPAPRTVTDEEINFVKTCLQRWRSEIEQDIQDLKTCIASTTQTIEQMYCDPLLRQVPYRLHAVLVHEGQANAGHYWAYIYNQPRQSWLKYNDISVTESSWEEVERDSYGGLRNVSAYCLMYINDKLPYFNAEAAPTESDQMSEVEALSVELKHYIQEDNWRFEQEVEEWEEEQSCKIPQMESSTNSSSQDYSTSQEPSVASSHGVRCLSSEHAVIVKEQTAQAIANTARAYEKSGVEAALSEVMLSPAMQGVILAIAKARQTFDRDGSEAGLIKAFHEEYSRLYQLAKETPTSHSDPRLQHVLVYFFQNEAPKRVVERTLLEQFADKNLSYDERSISIMKVAQAKLKEIGPDDMNMEEYKKWHEDYSLFRKVSVYLLTGLELYQKGKYQEALSYLVYAYQSNAALLMKGPRRGVKESVIALYRRKCLLELNAKAASLFETNDDHSVTEGINVMNELIIPCIHLIINNDISKDDLDAIEVMRNHWCSYLGQDIAENLQLCLGEFLPRLLDPSAEIIVLKEPPTIRPNSPYDLCSRFAAVMESIQGVSTVTVK
Consider B1, for which the binding result was “binds”.

Values taken from article PMC10702821.
